For experiment [1], the target named is Amyloid-β (1-42) peptide, unlabeled (UniProt P05067). Description: co-IP; 500 μg HT-22 lysate, mouse anti-Aβ antibody on protein A/G PLUS-Agarose, 0.25 μM Aβ(1-42) added for 1 h at 4 °C, absence or presence of Ca^2+; Western blot with anti-STIM1; only the target purified. (In general: In western blotting, separated proteins are transferred to a membrane and probed.)

The chains behind the UniProt entries cited, without tags or fusion partners. Residues count along the entry.
UniProt P05067, residues 672-713: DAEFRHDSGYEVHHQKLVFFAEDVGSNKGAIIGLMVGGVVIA
UniProt P70302, residues 23-685: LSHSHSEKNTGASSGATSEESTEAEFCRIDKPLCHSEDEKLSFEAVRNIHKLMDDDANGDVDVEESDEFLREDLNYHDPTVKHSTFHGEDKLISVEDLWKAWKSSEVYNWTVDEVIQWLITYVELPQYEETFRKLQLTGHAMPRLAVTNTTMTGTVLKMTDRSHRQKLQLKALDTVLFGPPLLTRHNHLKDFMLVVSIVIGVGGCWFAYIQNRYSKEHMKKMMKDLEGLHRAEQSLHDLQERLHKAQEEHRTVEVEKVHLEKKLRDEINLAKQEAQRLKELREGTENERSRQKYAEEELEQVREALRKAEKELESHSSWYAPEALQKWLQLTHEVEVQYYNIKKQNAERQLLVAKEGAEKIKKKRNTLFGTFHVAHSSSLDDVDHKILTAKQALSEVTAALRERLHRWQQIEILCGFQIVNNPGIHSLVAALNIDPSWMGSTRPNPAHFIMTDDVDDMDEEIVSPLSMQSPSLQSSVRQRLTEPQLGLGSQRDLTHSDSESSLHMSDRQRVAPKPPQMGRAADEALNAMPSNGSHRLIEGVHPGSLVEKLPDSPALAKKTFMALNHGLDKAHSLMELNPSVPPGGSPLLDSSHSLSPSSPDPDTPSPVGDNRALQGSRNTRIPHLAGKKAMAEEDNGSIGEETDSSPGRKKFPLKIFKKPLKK

The target is the same in experiment [2]. Description: co-IP; as a1 in the presence of Ca^2+, lysate previously incubated for 30 min with 1 μM peptide … (C-terminal amide); Western blot with anti-STIM1; only the target purified.

No constants are given. Whether binding was seen depends on the method and setting. In cells and extracts the contact can be indirect. Some binding calls cover weakened binding; strength is not graded here.

For “Stromal interaction molecule 1 (STIM1), endogenous in HT-22 cells (from UniProt P70302 23-685)”, the binding result in experiment [1] and in experiment [2] was “binds” throughout.

The record behind these values is PMC9604325.
